Results are given in words; binding and its absence hold for the method and conditions named. Some results given as binding are weak or reduced against the parent protein; the word gives no strength.
How the values were obtained:
[1] = target: His-tagged recombinant c-Jun (UniProt P05412); test: BLI
Estrogen Receptor α [2] = target: Estrogen Receptor α (UniProt P03372); test: binding curves (FIG. 10A)
[3] = target: His-tagged recombinant c-Jun (UniProt P05412); test: BLI (refers to Example 1)
Estrogen Receptor α [4] = target: Estrogen Receptor α (UniProt P03372); test: BLI binding curves on ERα
[5] = target: His-tagged recombinant c-Jun (UniProt P05412); test: BLI (Octet), His-tagged c-Jun captured on anti-His tips, peptide in solution

Amino acid sequences for entries named in this document (tags omitted).
UniProt P05412: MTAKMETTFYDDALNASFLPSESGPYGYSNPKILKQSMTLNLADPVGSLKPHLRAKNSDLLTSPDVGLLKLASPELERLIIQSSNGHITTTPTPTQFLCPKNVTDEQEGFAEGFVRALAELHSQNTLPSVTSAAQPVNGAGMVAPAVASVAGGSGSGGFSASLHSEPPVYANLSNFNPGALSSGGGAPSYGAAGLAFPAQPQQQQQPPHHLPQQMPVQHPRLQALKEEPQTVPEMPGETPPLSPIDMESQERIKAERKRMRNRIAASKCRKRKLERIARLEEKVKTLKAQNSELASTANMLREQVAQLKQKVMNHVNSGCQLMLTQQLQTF
UniProt P03372: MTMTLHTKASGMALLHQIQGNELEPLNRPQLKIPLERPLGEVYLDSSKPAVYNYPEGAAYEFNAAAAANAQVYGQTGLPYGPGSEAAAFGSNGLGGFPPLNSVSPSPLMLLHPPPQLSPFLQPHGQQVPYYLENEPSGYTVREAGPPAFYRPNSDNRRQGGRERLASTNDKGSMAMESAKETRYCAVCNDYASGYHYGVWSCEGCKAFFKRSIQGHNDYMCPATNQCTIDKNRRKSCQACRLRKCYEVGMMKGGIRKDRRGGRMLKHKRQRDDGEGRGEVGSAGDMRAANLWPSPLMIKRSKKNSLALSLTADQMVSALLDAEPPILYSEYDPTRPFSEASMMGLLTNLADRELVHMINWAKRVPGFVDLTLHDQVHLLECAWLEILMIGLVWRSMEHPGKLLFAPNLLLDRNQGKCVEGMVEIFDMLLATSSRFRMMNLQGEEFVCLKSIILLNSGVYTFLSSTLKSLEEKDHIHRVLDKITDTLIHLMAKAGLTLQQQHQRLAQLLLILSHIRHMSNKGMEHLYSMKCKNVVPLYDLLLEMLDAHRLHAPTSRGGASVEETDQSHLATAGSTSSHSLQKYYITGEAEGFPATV

Measured: binding

B1: CAPER peptide HCC1.3 (amino acid residues 356-400) (peptide)
peptide: RLQLMARLAEGTGLQIPPAAQQALQMSGSLAFGAVADLQTRLSQQ
modifications: single biotin on the N-terminus
binds: all assays above

B2: CAPER peptide HCC1.4 (amino acid residues 356-400) (peptide)
peptide: RLQLMARLAEGTGLQIPPAAQQALQMSGSLAFGAVAEFSFVIDLQ
modifications: single biotin on the N-terminus
binds: all assays above

Source: patent publication US20220184177A1
